Measured values from PMC4632291.

The chains behind the UniProt entries cited, without tags or fusion partners. Where a name states a change or a piece, a line headed by the entry shows the natural chain unless it says otherwise.
UniProt P50591: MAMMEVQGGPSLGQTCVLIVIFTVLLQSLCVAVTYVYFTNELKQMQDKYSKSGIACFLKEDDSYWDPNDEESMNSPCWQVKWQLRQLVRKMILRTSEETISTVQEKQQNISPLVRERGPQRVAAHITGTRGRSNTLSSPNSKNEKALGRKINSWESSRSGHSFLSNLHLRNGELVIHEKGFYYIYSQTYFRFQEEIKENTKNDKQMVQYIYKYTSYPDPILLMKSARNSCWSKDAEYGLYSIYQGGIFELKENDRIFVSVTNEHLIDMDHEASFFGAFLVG
UniProt Q14790: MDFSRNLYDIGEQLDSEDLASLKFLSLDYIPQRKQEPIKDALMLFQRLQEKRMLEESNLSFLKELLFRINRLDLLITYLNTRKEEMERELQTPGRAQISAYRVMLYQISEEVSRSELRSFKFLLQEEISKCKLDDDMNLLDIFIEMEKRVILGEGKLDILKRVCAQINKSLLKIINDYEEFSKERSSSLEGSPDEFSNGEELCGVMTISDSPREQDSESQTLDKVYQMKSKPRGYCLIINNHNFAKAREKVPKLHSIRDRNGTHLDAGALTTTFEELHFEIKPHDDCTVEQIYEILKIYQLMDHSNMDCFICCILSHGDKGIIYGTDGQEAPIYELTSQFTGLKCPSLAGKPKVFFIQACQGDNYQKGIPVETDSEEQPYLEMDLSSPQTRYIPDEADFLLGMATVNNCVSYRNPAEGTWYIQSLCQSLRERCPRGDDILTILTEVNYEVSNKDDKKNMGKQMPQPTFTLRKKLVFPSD

Molecular target: FLAG-tagged TRAIL (tumor necrosis factor-related apoptosis inducing ligand) (human) (UniProt P50591)
Test: co-IP; DISC immunoprecipitation: U251MG cells (control-AdV or Notch1sh-AdV, 72 h) incubated with FLAG-tagged TRAIL (500 ng/ml) for the indicated times, washed, lysed (20 mM Tris-HCl pH 7.4, 150 nM NaCl, 0.2% Nonidet P40, 10% glycerol); precipitated overnight with anti-FLAG M2 agarose beads; blots probed for DR5 and Caspase-8; only the target purified

“Caspase-8 (from UniProt Q14790 1-479) (enzyme)” was tested, and the binding was “binds”.

These are yes or no findings as the source states them, for the method shown. Binding seen in cells or lysates may run through a third protein. Binding can be weak; no strength is given.
